Primary screen of a compound library

Chains of the proteins cited; added tags and fusions are not shown. Residues count along the entry.
UniProt Q4DA54, 1-478: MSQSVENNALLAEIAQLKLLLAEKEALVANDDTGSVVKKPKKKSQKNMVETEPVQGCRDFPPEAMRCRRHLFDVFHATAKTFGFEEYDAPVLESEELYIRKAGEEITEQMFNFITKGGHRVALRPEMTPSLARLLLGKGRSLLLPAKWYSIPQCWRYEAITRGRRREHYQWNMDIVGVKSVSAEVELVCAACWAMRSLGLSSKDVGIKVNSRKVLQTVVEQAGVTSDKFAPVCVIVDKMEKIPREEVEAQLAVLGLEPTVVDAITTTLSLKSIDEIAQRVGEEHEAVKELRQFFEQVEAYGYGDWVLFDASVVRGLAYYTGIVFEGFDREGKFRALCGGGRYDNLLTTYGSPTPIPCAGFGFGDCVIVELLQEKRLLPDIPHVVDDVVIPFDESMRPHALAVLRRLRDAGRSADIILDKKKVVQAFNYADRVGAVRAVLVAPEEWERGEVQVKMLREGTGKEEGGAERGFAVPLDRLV
UniProt A4I591, 1-473: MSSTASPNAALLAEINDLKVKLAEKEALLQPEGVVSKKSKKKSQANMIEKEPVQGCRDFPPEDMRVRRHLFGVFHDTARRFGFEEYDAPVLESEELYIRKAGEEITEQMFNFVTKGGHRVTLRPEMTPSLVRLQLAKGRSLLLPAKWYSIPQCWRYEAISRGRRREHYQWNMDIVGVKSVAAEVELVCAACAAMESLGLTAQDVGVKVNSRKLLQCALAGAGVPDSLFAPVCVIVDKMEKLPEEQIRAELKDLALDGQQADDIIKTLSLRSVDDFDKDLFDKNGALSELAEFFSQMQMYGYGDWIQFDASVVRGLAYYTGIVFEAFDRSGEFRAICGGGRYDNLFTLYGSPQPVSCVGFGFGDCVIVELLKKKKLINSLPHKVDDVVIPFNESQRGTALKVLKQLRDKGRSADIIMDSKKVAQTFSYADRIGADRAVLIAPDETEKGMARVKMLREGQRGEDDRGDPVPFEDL

From ChEMBL document CHEMBL3988442, “University of Dundee, Small-Polar-MMV Screening Library” (2021).

A: 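Histidine-tRNA ligase, Trypanosoma cruzi CL Brener (UniProt Q4DA54). Enzyme assay of histidyl-tRNA synthetase; the read-out is not stated. Concentration: 30 µM. Direction is inferred from retests: higher values go with stronger inhibition. Size under these conditions: about 69,000 compounds, about 31 of them at 50% or above in at least one test.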
B: 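Enzyme assay of histidyl-tRNA synthetase; the read-out is not stated. Target: Histidine-tRNA ligase, Leishmania infantum (UniProt A4I591). Compounds at 30 µM. Higher reads as stronger inhibition (inferred: compounds with an IC50 in retests scored well above the rest). The assay is labelled LdHisRS but filed under L. infantum. About 69,000 compounds were tested under these conditions; 0.6% (about 410) showed 50% or more at least once.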

Results are given as percent effect. How 0% and 100% were set is not recorded. Most values in the screen are low, and negative values occur. Compounds were drawn at random from those tested, without regard to their results.

SMILES,A,B
O=C(c1ccco1)N1CCn2cc(CN3CCCC3)nc2C1,4.902,8
Cc1n[nH]c(C2CN(Cc3ncc(C(C)C)o3)CCO2)n1 (stereo not shown),9.524,26.67
CC(CNC(=O)c1ccc(=O)[nH]n1)N1CCc2ccccc21 (stereo not shown),8.262,11.97
CCCS(=O)(=O)N1Cc2nccn2CC(Cn2cccn2)C1 (stereo not shown),6.522,22.37
COc1ccc(Oc2ncccc2NC(=O)N2CCOCC2C)cc1 (stereo not shown),-0.5435,16
O=C(NCCCn1ccnc1)c1csc2c1CCCC2,7.937,0
COc1ccc(NC(=O)C2CC(=O)n3cnnc3S2)cc1 (stereo not shown),3.093,3.297
COCCO[C@@H]1CCN(Cc2csc(C)n2)[C@H]1Cc1ccccc1,5.932,0
NC(=O)Cn1cc(NC(=O)N2CCCC2)cn1,2.29,-4.255
CCOc1ccc(C(=O)Nc2ccn(CC)n2)cc1,1.339,3.704
O=C(NCc1ccccn1)[C@@H]1COC[C@H]2CNC[C@H]21,-3.448,18.42
CN(C)Cc1cnc(C2CN(C(=O)c3ccccc3Cl)CCO2)[nH]1 (stereo not shown),5.747,15.71
CC(C)(C)c1nc(CC(=O)NCCC(=O)Nc2ccncc2)cs1,-0.5525,13.47
COc1ccc(CNCCc2cccc(C(N)=O)c2)cc1C,8.621,-2.679
CC(NC(=O)c1cc2n(n1)CCCN(C)C2)c1cn2ncsc2n1 (stereo not shown),5.952,22.22
CN(c1ncc(S(N)(=O)=O)s1)C1CCc2ccccc2C1 (stereo not shown),1.19,15.5
Cc1n[nH]c(C2CN(C(=O)c3cnc[nH]3)CCO2)n1 (stereo not shown),2.642,13.33
CC(C)C[C@H](N)C(=O)N1CC2(CCNCC2)c2cc(Cl)ccc21,9.135,24.77
CO[C@@H]1CC[C@H]2[C@H]1OCCN2Cc1ccc(F)c(F)c1,7.619,8.333
CN(c1ccncn1)C1CC2(CCN(C(=O)c3cccs3)C2)C1 (stereo not shown),-4.865,-5.556
COCC(O)CN(C)c1ccnc2cc(F)ccc12 (stereo not shown),12.87,0
COc1ccc(CNCc2ccnc(N3CCCC3)c2)c(OC)c1,13.2,26.85
Cc1cccc(S(=O)(=O)N2C[C@@H]3C[C@@H](c4nc(C)no4)O[C@@H]3C2)c1,3.911,3.846
CCOc1ccc(S(=O)(=O)C(C)C(=O)Nc2cc(C)no2)cc1 (stereo not shown),7.182,7.292
Cc1cc(C[S+]([O-])CC(=O)NCc2ccccc2)no1 (stereo not shown),4.023,12.17
Cc1cnn(CC(C)NCc2ccc(-n3cccn3)cc2)c1 (stereo not shown),3.383,-54.05
COCC(=O)N1CCC(C(=O)N(C)CCCc2nccn2C)CC1,4.39,3.39
CN1C(=O)CCC12CCCN(Cc1nccs1)C2 (stereo not shown),-2.041,17
Cn1cnnc1CNC(=O)C1CCCN(Cc2ccccc2)C1 (stereo not shown),1.724,9.821
CCOC(=O)[C@@H]1[C@@H](c2ccccc2)CN2CCN(C(=O)C3CC3)C[C@H]12,-1.124,-8.163
Cc1ccccc1C(C(=O)O)N(C)CC1CCOCC1 (stereo not shown),5.6,18.58
CCn1nc(C)c(C(C)NC(=O)c2cccc(NCC(=O)O)c2)c1C (stereo not shown),1.676,2.632
CC/C=C(/C)C(=O)N1CSCC1C(=O)N(C)CCc1ccncc1 (stereo not shown),5.051,-4.762
Cc1cc(C(N)=O)c2c(Br)cccc2n1,2.404,2.439
CCC(=O)N1CCC2(CC1)CN(CCO)Cc1ccccc12,1.905,1.389
O=C(NCCCN1CCOCC1)C(OC1CCCC1)c1ccccc1 (stereo not shown),3.59,7.937
CC(NC(=O)CCOc1ccccc1Cl)c1nnc2n1CCC2 (stereo not shown),-1.504,38.1
CN(C)C(CNC(=O)c1ccc(-n2cnnn2)cc1)c1ccccc1Cl (stereo not shown),6.14,15.93
CCS(=O)(=O)N1CCC(c2nc(C)c(C)c(N3CCCC3)n2)CC1,15.15,17.39
O[C@@]1(CNCC2(Cn3ccnc3)CC2)CCCN2CCCC[C@@H]21,3.017,26.58
CCS(=O)(=O)CC(=O)NC1(c2ccc(Cl)c(Cl)c2)CC1,6.806,27.59
Cc1cnc(CN(C)C2CCN(Cc3nc4c(F)cccc4[nH]3)C2)o1 (stereo not shown),14.85,14.29
COCc1cccc(C(=O)N2CCN(C3=NCC(C)(C)S3)CC2)c1,6.897,14.91
Cc1nn(-c2ccccc2)nc1C(=O)N1CCCC(n2cccn2)C1 (stereo not shown),4.52,6.897
Cc1ocnc1C(=O)N(C)[C@@H]1CCC[C@@H](N2CCCC2)[C@@H]1O,-0.2857,2.685
COc1ccc(CN2CC(O)CN(C(=O)CC(C)C)CC2=O)cc1 (stereo not shown),-1.124,4.082
CCN1C(=O)CC[C@]12CC[C@@H](NC(=O)c1cc(C)on1)CC2,-37.86,-62.14
OC1CCCN(Cc2cn(CC3CCN(C4CCSCC4)CC3)nn2)C1 (stereo not shown),-4.242,-11.11
OCC(O)CSCc1nnc(-c2cccc(F)c2)o1 (stereo not shown),3.947,9.167
CC(C)NC(=O)CS(=O)(=O)Cc1cc(Cl)c2c(c1)OCCO2,2.256,14.61
O=C(c1cc(-n2cccn2)ccn1)N1CCOc2ccncc21,5.435,3.03
Cc1csc(CNC(=O)N(C)Cc2nnc3n2CCC3)n1,7.937,10.96
O=S(=O)(C1CC1)N1CCC2(COCc3cnc(N4CCOCC4)nc32)C1 (stereo not shown),-0.5464,13.59
CCn1cc(NC(=O)CN2CCC(Oc3ccc(F)cc3)CC2)c(C)n1,1.429,17.45
COc1ccccc1CC1CCCN(CCN2CCOC2=O)C1 (stereo not shown),5.172,0.8772
COC(=O)c1ccc(N2CCN(C(=O)c3cnn(C)c3)C(C)C2)cc1 (stereo not shown),0,-25.84
Cc1cc(C)n(CC2CCCN2C(=O)c2cccc3[nH]ncc23)n1 (stereo not shown),0.3831,12.31
Cc1cnn(CC2CCCCN2C(=O)c2ccc3c(c2)COC3)c1 (stereo not shown),6.122,9.735
CN(C)C(=O)[C@@H]1CCO[C@@H]2CCN(CCOCc3ccccc3)C[C@H]21,7,10.96
CCC(C)N(Cc1ccc(C)cc1)Cc1c[nH]c(C)n1 (stereo not shown),0.5435,-2.667
Cc1ccc(CN2CCN(C3CCCC3)CC2CCO)o1 (stereo not shown),-2.762,7.229
CC(=O)N[C@@H]1CN(C(=O)c2ccc[nH]2)C[C@H]1c1ccc(C)o1,15.19,14.58
O=C(c1cc(=O)n(-c2ccccc2)[nH]1)N1CCOC(C(F)(F)F)C1 (stereo not shown),0.8,0.885
O=C(NC[C@H]1OC[C@@H](NC2CCC(F)(F)CC2)[C@@H]1O)c1ccccc1,4.348,-4.054
Cc1cccnc1C(NC(=O)CNC(=O)c1ccoc1C)C(C)C (stereo not shown),0.5525,23.94
Cn1nccc1CNC(=O)Cn1nc(C(F)(F)F)cc1C1CC1,4.624,8.247
CCn1cnnc1CNC(=O)N1CCN(C(C)C)CC1,5.539,11.5
Cc1cc(C(=O)N(C)C)nc(C2(C)CCCN2c2ccnc(C)n2)n1 (stereo not shown),3.788,17.39
CCCc1n[nH]c(=O)n1Cc1ccccc1F,7.317,10.17
COCC(=O)N1CCC2(CC(=O)N(c3cccc(F)c3)C2)C1 (stereo not shown),3.261,6.579
CC(C)(C)OC(=O)N1CC(CC(=O)NCc2ccsc2)C1,-0.9804,9.6
Cn1ncc(Cl)c1C(=O)NCCN1CCC(O)(c2ccc(F)cc2)CC1,6.061,19.72
CN1CCOC(CNCCOc2cccc(C#N)c2)C1 (stereo not shown),1.064,7.143
CCCN(CCC)S(=O)(=O)c1cc(NC(C)=O)ccc1C,-2.703,15.38
O=C1CN(Cc2nnc(-c3ccc(Br)cc3)o2)CCN1,1.626,16.35
COc1cc(-c2nc3c([nH]2)CCCNC3=O)cc(OC)c1OC,10.1,22.34
CCNC(=O)CN1CCN(c2ccnc3c(F)ccc(F)c23)CC1,1.01,15.87
CN(C)C(=O)c1ccc(C2CCCN2C(=O)c2ccccc2N(C)C)s1 (stereo not shown),2.155,-1.266

The first 7 entries again:

SMILES	A	B
O=C(c1ccco1)N1CCn2cc(CN3CCCC3)nc2C1	4.902	8
Cc1n[nH]c(C2CN(Cc3ncc(C(C)C)o3)CCO2)n1 (stereo not shown)	9.524	26.67
CC(CNC(=O)c1ccc(=O)[nH]n1)N1CCc2ccccc21 (stereo not shown)	8.262	11.97
CCCS(=O)(=O)N1Cc2nccn2CC(Cn2cccn2)C1 (stereo not shown)	6.522	22.37
COc1ccc(Oc2ncccc2NC(=O)N2CCOCC2C)cc1 (stereo not shown)	-0.5435	16
O=C(NCCCn1ccnc1)c1csc2c1CCCC2	7.937	0
COc1ccc(NC(=O)C2CC(=O)n3cnnc3S2)cc1 (stereo not shown)	3.093	3.297